Source: publication PMC6755995
Results are given in words; binding and its absence hold for the method and conditions named. In cells and extracts the contact can be indirect. Some entries that bind do so weakly or less than the wild type.

Protein sequences, listed by entry. Tags and fused reporters are not part of them.
UniProt P10275: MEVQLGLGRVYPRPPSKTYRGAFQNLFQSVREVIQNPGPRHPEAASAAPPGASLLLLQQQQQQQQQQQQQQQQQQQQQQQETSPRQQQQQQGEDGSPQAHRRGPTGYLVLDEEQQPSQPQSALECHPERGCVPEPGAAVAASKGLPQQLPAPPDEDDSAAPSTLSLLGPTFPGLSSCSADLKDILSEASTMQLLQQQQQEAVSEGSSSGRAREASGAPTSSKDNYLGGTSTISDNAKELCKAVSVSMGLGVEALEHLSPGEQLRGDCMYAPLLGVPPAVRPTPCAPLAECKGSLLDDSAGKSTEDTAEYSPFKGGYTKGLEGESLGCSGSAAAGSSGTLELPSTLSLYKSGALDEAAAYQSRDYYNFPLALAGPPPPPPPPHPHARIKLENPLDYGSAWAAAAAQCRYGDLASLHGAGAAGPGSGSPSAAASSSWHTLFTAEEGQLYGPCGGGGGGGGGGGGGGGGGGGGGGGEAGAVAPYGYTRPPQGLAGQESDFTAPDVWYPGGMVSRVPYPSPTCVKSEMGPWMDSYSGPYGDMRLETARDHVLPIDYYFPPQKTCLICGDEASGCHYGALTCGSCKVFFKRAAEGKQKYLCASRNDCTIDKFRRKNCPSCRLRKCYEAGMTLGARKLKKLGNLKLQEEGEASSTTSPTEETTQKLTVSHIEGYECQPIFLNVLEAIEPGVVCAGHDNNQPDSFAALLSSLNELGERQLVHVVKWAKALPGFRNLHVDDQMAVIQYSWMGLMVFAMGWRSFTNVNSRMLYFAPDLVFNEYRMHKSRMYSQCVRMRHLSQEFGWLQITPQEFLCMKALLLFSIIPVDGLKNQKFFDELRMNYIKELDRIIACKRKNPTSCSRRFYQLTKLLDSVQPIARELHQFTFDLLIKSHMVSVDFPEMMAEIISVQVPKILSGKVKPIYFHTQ
UniProt P14618: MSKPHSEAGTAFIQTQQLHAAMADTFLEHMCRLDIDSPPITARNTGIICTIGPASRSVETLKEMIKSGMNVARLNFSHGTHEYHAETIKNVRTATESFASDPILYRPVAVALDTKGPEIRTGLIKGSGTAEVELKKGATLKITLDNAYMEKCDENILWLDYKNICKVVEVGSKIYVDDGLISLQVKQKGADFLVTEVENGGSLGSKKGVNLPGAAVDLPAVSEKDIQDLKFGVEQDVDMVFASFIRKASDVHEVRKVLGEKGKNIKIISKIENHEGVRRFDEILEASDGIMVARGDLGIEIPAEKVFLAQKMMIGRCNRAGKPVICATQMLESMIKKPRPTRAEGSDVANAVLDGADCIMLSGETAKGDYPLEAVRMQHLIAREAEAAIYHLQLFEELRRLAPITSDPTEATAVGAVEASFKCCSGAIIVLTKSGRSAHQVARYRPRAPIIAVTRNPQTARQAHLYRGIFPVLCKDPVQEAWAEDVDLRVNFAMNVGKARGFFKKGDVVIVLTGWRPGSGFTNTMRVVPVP
UniProt Q8N371: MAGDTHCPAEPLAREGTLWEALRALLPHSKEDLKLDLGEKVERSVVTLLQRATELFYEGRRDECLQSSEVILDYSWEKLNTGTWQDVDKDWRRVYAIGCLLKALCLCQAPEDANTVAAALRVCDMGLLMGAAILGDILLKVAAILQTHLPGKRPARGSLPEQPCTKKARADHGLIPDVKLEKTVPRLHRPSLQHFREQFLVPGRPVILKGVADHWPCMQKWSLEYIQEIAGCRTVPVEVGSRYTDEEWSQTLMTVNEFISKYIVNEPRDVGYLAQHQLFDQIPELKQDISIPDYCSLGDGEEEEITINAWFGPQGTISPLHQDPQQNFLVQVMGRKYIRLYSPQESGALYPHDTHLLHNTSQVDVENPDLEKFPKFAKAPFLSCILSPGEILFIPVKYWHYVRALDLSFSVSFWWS

What was measured:
Assay in all cases: co-IP; endogenous proteins in LNCaP cell lysate; immunoprecipitation and immunoblotting with PKM2, KDM8 and AR antibodies; control IgG
[1] = target: AR (androgen receptor), endogenous in LNCaP cells (human (endogenous in LNCaP)) (UniProt P10275)
[2] = target: PKM2 (pyruvate kinase M2), endogenous in LNCaP cells (human (endogenous in LNCaP)) (UniProt P14618)
[3] = target: KDM8/JMJD5, endogenous in LNCaP cells (human (endogenous in LNCaP)) (UniProt Q8N371)

## KDM8/JMJD5, endogenous in LNCaP cells (from UniProt Q8N371 1-416)
[1]
  binding: binds
[2]
  binding: binds

## PKM2 (pyruvate kinase M2), endogenous in LNCaP cells (from UniProt P14618 1-531)
[3]
  binding: binds
